Measurements reported in PMC8619434 (Viruses, 2021).

Columns and labels:
[1] = tested on: SARS-CoV-2 spike protein pseudovirus; format: cell-based; settings: 10 µM; read-out: % infectivity (Table S3, kite-shaped molecules in order of inhibition)
293T-ACE2 cells = settings: 10 µM

Q: Which results are given for `CN1c2ccccc2C(NCCCCCCC(=O)[O-])c2ccc(Cl)cc2S1(=O)=O.[Na+]` (centres unmarked) [Tianeptine sodium]?
A: activity [1]: 94.8%; % viability (Table S3) (293T-ACE2 cells): 102
